# Screen size: about 320,000 compounds; about 2,100 (0.66%) were called active. Inconclusive results, whose numbers are uncertain, are shown with a selection of clear calls. Calls follow the shape of the dose curve; as a rule, active = well fitted inhibition curve with a large enough effect in the signal ratio, with a control signal flat (not every such curve was filed as active); inconclusive = small, poorly fitted or top-dose-only effect, or effect the other way, or a change in a side signal; inactive = flat fitted curve, though single readings scatter; the % refers to the signal ratio. Potencies of inconclusive entries are doubtful fits and often do not repeat.
# Test: qHTS Assay for Lipid Storage Modulators in Drosophila S3 Cells
# Details: BODIPY lipid droplet fluorescence, 18-24 h, cells fed with added oleic acid; lipid storage change, negative = inhibition: at 46.1 µM (top of the series) unless noted
# Method in brief: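 Laser-scanning cytometry quantifies lipid droplet accumulation (500–530 nm total intensity; droplet/cell object ratio) in oleic acid-fed (400 uM added) Drosophila S3 cells treated with a concentration series. 20 uM Triacsin C defined 100% inhibition.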
# % is scaled to controls: 0 for no effect and ±100 for the full control effect; potency is read from the fitted curve at half-maximal effect.
Compound,"lipid storage change, negative = inhibition",Potency
O=C1CN=C(c2ccccc2F)c2cc(Cl)ccc2N1,inconclusive: -22.3%,–
O=C(N=Nc1c(O)[nH]c(=O)[nH]c1=O)C1COc2cc3ccccc3cc2O1 (configuration not stated),inconclusive: 49.5%,–
O=C(C1CCC(=O)N1Cc1ccc(F)cc1)N1CCC2(CC1)OCCO2 (configuration not stated),–,"inconclusive: 29.1 µM [activator, single point]"
Cc1ccc(OCC(=O)N2CCN(C3CCC(c4ccccc4)CC3)CC2)cc1 (configuration not stated),inconclusive: -22.1%,–
O=[N+]([O-])c1ccc(Cl)cc1,–,"inconclusive: 0.0058 µM [rising, full curve, poor fit]"
Cc1ccc(S(=O)(=O)CC(=O)c2cc(C)c(OC(=O)N(C)C)c(C)c2)cc1,–,"inconclusive: 32.6 µM [falling, single point]"
O=C(COC(=O)Cc1ccccc1)Nc1ccc(Cl)cn1,inconclusive: 2.82%,–
Cn1c(O)c(C(=O)c2ccccc2)c(=O)n(C)c1=O,inconclusive: -41.1%,–
CCN(C(=O)COC(=O)Cc1ccccc1)c1c(N)n(Cc2ccccc2)c(=O)[nH]c1=O,inconclusive: 0.573%,–
CC[N+]12CCC(CC1)C(C(O)(c1ccccc1)c1ccccc1)C2 (configuration not stated),–,"inconclusive: 29.1 µM [activator, single point]"
Cc1cccc(C)c1N1CCN(c2c(C)cccc2C)CC1,inconclusive: 31.6%,–
CC(=O)c1c(C)n(CC2CCCO2)c2ccc(O)cc12 (configuration not stated),–,"inconclusive: 23.1 µM [activator, single point]"
Cc1ccc(CCN2CC(C(=O)N3CCC4(CC3)OCCO4)CC2=O)cc1 (configuration not stated),inconclusive: -7.88%,–
CCOP(=O)(OCC)C1(O)C(=O)Nc2ccc(Br)cc21 (configuration not stated),–,"inconclusive: 16.4 µM [activator, single point]"
Cn1c(O)c(Cc2ccc(OCc3ccccc3)cc2)c(=O)n(C)c1=O,inconclusive: -3.72%,–
COc1ccc(P2(=O)Nc3ccccc3N2)cc1,–,"inconclusive: 9.2 µM [falling, partial curve]"
Nc1c(C(=O)NCCN2CCOCC2)c2nc3ccccc3nc2n1Cc1ccco1,–,"inconclusive: 0.82 µM [activator, full curve, poor fit]"
CC(c1ccccc1)n1cncc1C(=O)N1CCCC1=O (configuration not stated),inconclusive: 4.21%,–
CN(C)c1ccc(/C=C2\CC3C4CC=C5CC(O)CCC5(C)C4CCC3(C)C2=O)cc1 (configuration not stated),inconclusive: -11%,–
COc1ccccc1N1CCN(Cc2cccc(OC)c2O)CC1,–,"inconclusive: 14.6 µM [activator, partial curve]"
CCCC(C)C(=O)NC1CCSC1=O (configuration not stated),–,"inconclusive: 29.1 µM [falling, single point]"

Compound,"lipid storage change, negative = inhibition",Potency
COc1cc(CN2CCN(C(=O)COc3ccccc3)CC2)cc(OC)c1OC,inconclusive: -30.9%,–
O=c1[nH]c(=O)n(-c2ccc(F)cc2)c(O)c1C=Nc1ccccc1N1CCCC1,inconclusive: 17.4%,–
O=NN1CCCCC1,inconclusive: 12.1%,–
CC12CNCC(C)(CNC1)C2O (configuration not stated),inconclusive: -4.44%,–
CCOC(=O)C1=C(C)OC(N)=C(C(=O)OCC)C12C(=O)Nc1ccc(Br)cc12 (configuration not stated),inconclusive: 72.2%,–
Fc1ccc(CCNCc2cccc(Cl)c2)cc1,inconclusive: 9.73%,–
CCN1CCN(Cc2cccnc2)CC1,inconclusive: 26.4%,–
CCOC(=O)c1c(C)n(CC(O)CN2CCOCC2)c2cc(Br)c(OC)cc12 (configuration not stated),inconclusive: 12%,–
O=C(C(=O)N1CCOCC1)c1cn(Cc2ccccc2Cl)c2ccccc12,inconclusive: -4%,–
CN1C(=O)NC(=O)/C(=C/c2ccc([N+](=O)[O-])s2)C1=O,–,"inconclusive: 0.0731 µM [falling, full curve, poor fit]"
Cc1ccc2c(c1)C1CN(C)CCC1N2C(=O)COc1ccc(S(=O)(=O)N2CCOCC2)cc1 (configuration not stated),inconclusive: -0.305%,–
CCC(=NCc1ccc2c(c1)OCO2)c1c(O)n(C2CCCCC2)c(=O)[nH]c1=O,inconclusive: -74%,–
COc1cccc(-n2c(-c3ccoc3)nc3ccccc3c2=O)c1,–,"inconclusive: 2.31 µM [rising, single point]"
Cc1ccc(-c2cc(-c3ccc(C)cc3)[n+](-c3ccc(C(=O)O)cc3)c(-c3ccc(C)cc3)c2)cc1,inactive: 8.58%,–
CCCCc1ccc(C(=O)O)nc1,inconclusive: 17.1%,–
CCOP(=O)(OCC)C(NC(=O)Cc1ccccc1)C(Cl)(Cl)Cl (configuration not stated),inconclusive: -33.8%,–
CN(CC1COc2ccccc2O1)c1nc(-c2cccnc2)nc2ccccc12 (configuration not stated),inconclusive: 18.4%,–
O=C(CCCOc1ccc(Cl)cc1Cl)N1CCC2(CC1)OCCO2,inconclusive: 29.5%,–
COc1cc(CNCCc2ccc3c(c2)OCO3)cc(OC)c1OC,inconclusive: 18.8%,–
CCCCN1C(=O)/C(=C/c2ccc(N(C)C)cc2)C(=O)N(Cc2ccco2)C1=O,inconclusive: -23.8%,–
CCCC(CCC)C(=O)OC[N+](C)(C)CCOC(=O)C(O)(c1ccccc1)C1CCCC1 (configuration not stated),inconclusive: -27.4%,–

Compound,"lipid storage change, negative = inhibition",Potency
CCOC(=O)Cn1c(=O)oc2cc(S(=O)(=O)N(C)c3ccc(OC)cc3)ccc21,–,"inconclusive: 6.51 µM [rising, single point]"
O=C(CCN1C(=O)COc2ccccc21)N1CCC2(CC1)OCCO2,inactive: 2.07%,–
Cc1ccc(C(=O)N/C(=C\Cl)P(=O)(c2ccccc2)c2ccccc2)cc1,inactive: -14.3%,–
CNC(=O)O/N=C/c1nn(C(=O)C(C)(C)C)cc1Br,inconclusive: 1.46%,–
CN(Cc1ccccc1)C1CCCN(C(=O)COc2ccccc2Cl)C1 (configuration not stated),inactive: 3.21%,–
Clc1ccc(N2CCN(Cc3ccccc3Cl)CC2)cc1,inconclusive: 15.3%,–
O=C(Nc1ccc(OC(=O)N2CCCC2)cc1)N1CCOCC1,inactive: 0.334%,–
O=c1[nH]c(=S)n(Cc2ccc(F)cc2)c(O)c1/C=N/N1CCCCCC1,inconclusive: -0.614%,–
N#Cc1c(/N=C/c2c(O)n(Cc3ccco3)c(=O)[nH]c2=O)sc2c1CCCC2,inconclusive: -33.3%,–
CCN1CCN(c2nc3c(c(=O)[nH]2)CCCC3)CC1,–,"inconclusive: 29.1 µM [cytotoxic, single point]"
Cc1ccc(-c2nc3ccccc3c(=O)n2-n2cccc2)cc1,inconclusive: 18.9%,–
Cc1ccc([N+](=O)[O-])cc1,inconclusive: 15%,–
Fc1c(F)c(F)c(N2CCNCC2)c(F)c1F,inconclusive: 3.45%,–
Brc1ccc2[nH]cc(/C=N/N3CCCCC3)c2c1,inconclusive: 15.4%,–
COC(=O)C1=C(c2ccc(F)cc2OCc2ccccc2)C[C@@H]2CC[C@H]1N2C(=O)NCc1ccc(OC)c(OC)c1,inconclusive: -93.7%,–
c1cncc(C2CCCCN2Cc2ccc3c(c2)OCO3)c1 (configuration not stated),inconclusive: 26.2% [at 9.22 µM],–
CC(=O)NC1C(OC(=O)Cc2ccccc2)OC(COC(C)=O)C(OC(C)=O)C1OC(C)=O (configuration not stated),inconclusive: 21.8%,–
COC(=O)C1=C(c2ccc(OCc3ccccc3)cc2)C[C@@H]2CC[C@H]1N2C(=O)NCc1ccccc1,–,"inconclusive: 29.1 µM [falling, single point]"
Cc1cccc(C)c1OP(N)(=O)OCC(F)(F)F (configuration not stated),inconclusive: 201%,–
O=C1Nc2ccc(Br)cc2C(c2ccccc2Cl)=NC1O (configuration not stated),inconclusive: -0.671%,–
O=C(c1cccc(C(F)(F)F)c1)C1CCCN(Cc2ncc[nH]2)C1 (configuration not stated),inconclusive: 11.8%,–

Compound,"lipid storage change, negative = inhibition",Potency
CC(=O)N1CC(=O)Nc2ccc(C)cc2C1c1ccccc1 (configuration not stated),inconclusive: -10.1%,–
CCC(=NCc1ccco1)c1c(O)[nH]c(=O)[nH]c1=O,inconclusive: -22.6%,–
CCCCn1c(NS(=O)(=O)c2ccc(C)cc2)c(C(=O)OCC)c2nc3ccccc3nc21,inconclusive: -6.82%,–
COc1ccc2[nH]cc(CCN)c2c1,–,"inconclusive: 18.4 µM [rising, partial curve]"
Cn1nc(OC(=O)Nc2ccc(Cl)cc2)cc1C(F)(F)F,–,"inconclusive: 3.26 µM [falling, single point]"
CCNC(=S)N(C)CCc1cc2c(c(OC)c1C=C1C(=O)N(C)C(=O)N(C)C1=O)OCO2,inconclusive: 29.9%,–
CCC(=Nc1ccc(OC)cc1OC)c1c(O)[nH]c(=O)[nH]c1=O,–,"inconclusive: 6.51 µM [activator, single point]"
O=C(COc1ccc(Br)cc1)N1CCN(Cc2ccc3c(c2)OCO3)CC1,inconclusive: 18.8%,–
Nc1ncc([N+](=O)[O-])s1,inconclusive: 9.87%,–
O=C(Cc1ccccc1)N1CCN(CC2CC3C=CC2C3)CC1 (configuration not stated),inconclusive: 13.1%,–
CC(=O)CC(c1ccccc1[N+](=O)[O-])c1c(O)c2ccccc2oc1=O (configuration not stated),inconclusive: 12.7%,–
Clc1ccc(CNC2CN3CCC2CC3)cc1 (configuration not stated),inconclusive: 20.8%,–
COc1ccc2[nH]cc(CCNCc3cccnc3)c2c1,–,"inconclusive: 13 µM [activator, partial curve]"
Cc1ccc(C2CC3CCC(C2)N3Cc2ccccc2F)cc1 (configuration not stated),inconclusive: -18.4%,–
COc1ccc(-c2nn(CCC#N)cc2C(=O)O)cc1,inconclusive: -29.7%,–
CC(=O)C1C2c3ccccc3O[C@@]1(C)N=c1s/c(=C/c3ccoc3)c(=O)n12 (some centres not stated),inconclusive: -0.967%,–
COc1ccc(OC)c(NP(=O)(Oc2ccc(Cl)cc2)Oc2ccc(Cl)cc2)c1,inactive: 8.47%,–
COc1cccc(CNC2CN3CCC2CC3)c1OC (configuration not stated),–,active: 29.1 µM
CCCC(=O)Nc1cc(C(=O)N2CCC3(CC2)OCCO3)ccc1S(=O)(=O)c1ccc(C)cc1,–,"inconclusive: 29.1 µM [falling, single point]"

# Some values from the results shown.
# Value of CC(=O)CC(c1ccccc1[N+](=O)[O-])c1c(O)c2ccccc2oc1=O (configuration not stated) under lipid storage change, negative = inhibition: inconclusive: 12.7%
# Value of CCC(=Nc1ccc(OC)cc1OC)c1c(O)[nH]c(=O)[nH]c1=O under Potency: inconclusive: 6.51 µM [activator, single point]
# Value of COc1cccc(CNC2CN3CCC2CC3)c1OC (configuration not stated) under Potency: active: 29.1 µM

# — PubChem BioAssay AID2685 (National Center for Advancing Translational Sciences (NCATS), 2010)
